Source: the supplement of paper PMC6078165
± gives the standard deviation of the averaged measurements. The reference is the same well before dosing, and untreated signal decays as well.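 Fibroblast labels denote human fibroblasts, mainly primary ones from uterus (C12385, HUF), lung (H6013), bone (Hs27A), adrenal (HADF) and skin (WS1), plus mammary HMF and breast cancer-associated Hs343T. Cancer cells are basal-like or mesenchymal-like triple-negative breast cancer lines. A hit is a response shift exceeding 3x replicate standard deviation. The tissue of the other fibroblasts is not given here.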

Tested on: Hs578T
Experiment: relative JC-1 red fluorescence (viability) vs pre-drug, coculture with fibroblast (fraction); higher = more viable cancer cells
Experimental: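 JC-1 labelled TNBC cells cocultured 1:1 (1,500 cells each) with CellTrace Violet stained primary or stromal fibroblasts in 384-well plates in FluoroBrite medium, treated with one of 42 anticancer drugs at 0.1, 1, 10 or 100 uM. JC-1 red fluorescence (mitochondrial integrity in cancer cells only) was read by plate reader every 8 h for 72 h. Values are normalised to each well's pre-drug value. The stock of one drug was tenfold lower, so its dose labels may be too high.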

CCC1=C[C@@H]2CN(C1)Cc1c([nH]c3ccccc13)[C@@](C(=O)OC)(c1cc3c(cc1OC)N(C)[C@H]1[C@@](O)(C(=O)OC)[C@H](OC(C)=O)[C@]4(CC)C=CCN5CC[C@]31[C@@H]54)C2 [Vinorelbine]
relative JC-1 red fluorescence
Details	8 h	16 h	24 h	32 h	40 h	48 h	56 h	64 h	72 h
0.1 µM	0.94 ± 0.03	0.819 ± 0.047	0.753 ± 0.037	0.686 ± 0.028	0.589 ± 0.027	0.54 ± 0.021	0.5154 ± 0.0014	0.4735 ± 0.0047	0.471 ± 0.016
1 µM	0.902 ± 0.012	0.806 ± 0.019	0.747 ± 0.023	0.69 ± 0.012	0.618 ± 0.022	0.563 ± 0.035	0.548 ± 0.031	0.501 ± 0.036	0.487 ± 0.033

relative JC-1 red fluorescence
Details	8 h	16 h	24 h	32 h	40 h	48 h	56 h	64 h	72 h
0.1 µM, coculture fibroblast: C12385	0.837 ± 0.032	0.675 ± 0.043	0.631 ± 0.03	0.517 ± 0.047	0.453 ± 0.044	0.425 ± 0.047	0.4 ± 0.047	0.405 ± 0.051	0.408 ± 0.042
0.1 µM, coculture fibroblast: H6013	0.89 ± 0.014	0.7845 ± 0.004	0.74199 ± 0.00072	0.702 ± 0.022	0.655 ± 0.0076	0.65 ± 0.0082	0.633 ± 0.016	0.6333 ± 0.0045	0.6208 ± 0.0047
0.1 µM, coculture fibroblast: H6019	0.821 ± 0.011	0.705 ± 0.016	0.703 ± 0.011	0.61 ± 0.0088	0.5756 ± 0.0047	0.551 ± 0.0066	0.538 ± 0.0077	0.5478 ± 0.0017	0.5428 ± 0.0035
0.1 µM, coculture fibroblast: H6076	0.846 ± 0.025	0.778 ± 0.017	0.718 ± 0.018	0.699 ± 0.042	0.657 ± 0.06	0.659 ± 0.057	0.663 ± 0.061	0.665 ± 0.064	0.68 ± 0.073
0.1 µM, coculture fibroblast: H6231	0.948 ± 0.023	0.864 ± 0.031	0.722 ± 0.017	0.664 ± 0.021	0.581 ± 0.044	0.544 ± 0.052	0.5 ± 0.069	0.48 ± 0.075	0.472 ± 0.086
0.1 µM, coculture fibroblast: HADF	0.9132 ± 0.0087	0.798 ± 0.02	0.746 ± 0.056	0.675 ± 0.065	0.628 ± 0.074	0.594 ± 0.071	0.559 ± 0.089	0.555 ± 0.089	0.535 ± 0.099
0.1 µM, coculture fibroblast: HCFa	0.881 ± 0.012	0.7785 ± 0.006	0.70708 ± 7.1e-07	0.608 ± 0.031	0.525 ± 0.03	0.491 ± 0.031	0.459 ± 0.029	0.438 ± 0.038	0.411 ± 0.037
0.1 µM, coculture fibroblast: HCPF	0.957 ± 0.035	0.863 ± 0.038	0.78 ± 0.018	0.711 ± 0.014	0.592 ± 0.014	0.55 ± 0.0092	0.505 ± 0.0072	0.463 ± 0.013	0.437 ± 0.013
0.1 µM, coculture fibroblast: HHSteC	0.945 ± 0.056	0.873 ± 0.099	0.872 ± 0.13	0.839 ± 0.17	0.82 ± 0.18	0.807 ± 0.2	0.805 ± 0.2	0.798 ± 0.22	0.776 ± 0.23
0.1 µM, coculture fibroblast: HMF	0.841 ± 0.048	0.759 ± 0.01	0.71 ± 0.014	0.677 ± 0.025	0.582 ± 0.017	0.553 ± 0.026	0.521 ± 0.046	0.507 ± 0.047	0.511 ± 0.05
0.1 µM, coculture fibroblast: HPFa	0.9021 ± 0.0062	0.8305 ± 0.00093	0.735 ± 0.0093	0.629 ± 0.032	0.563 ± 0.017	0.524 ± 0.016	0.487 ± 0.021	0.468 ± 0.012	0.43 ± 0.023
0.1 µM, coculture fibroblast: HUF	0.909 ± 0.021	0.743 ± 0.047	0.742 ± 0.084	0.639 ± 0.094	0.567 ± 0.1	0.54 ± 0.1	0.519 ± 0.11	0.522 ± 0.11	0.526 ± 0.12
0.1 µM, coculture fibroblast: Hs27A	0.9261 ± 0.0028	0.8876 ± 0.0038	0.819 ± 0.026	0.764 ± 0.0094	0.6949 ± 0.0014	0.673 ± 0.012	0.636 ± 0.021	0.631 ± 0.026	0.594 ± 0.033
0.1 µM, coculture fibroblast: Hs343T	0.9226 ± 0.0054	0.772 ± 0.027	0.699 ± 0.031	0.655 ± 0.014	0.569 ± 0.0094	0.5387 ± 0.0026	0.497 ± 0.0099	0.489 ± 0.016	0.493 ± 0.027
0.1 µM, coculture fibroblast: WS1	0.81 ± 0.018	0.706 ± 0.021	0.651 ± 0.043	0.531 ± 0.025	0.476 ± 0.049	0.462 ± 0.063	0.434 ± 0.073	0.441 ± 0.084	0.444 ± 0.087
1 µM, coculture fibroblast: C12385	0.821 ± 0.018	0.718 ± 0.033	0.684 ± 0.053	0.572 ± 0.055	0.51 ± 0.073	0.474 ± 0.074	0.446 ± 0.079	0.438 ± 0.09	0.443 ± 0.095
1 µM, coculture fibroblast: H6013	0.912 ± 0.089	0.881 ± 0.062	0.842 ± 0.043	0.804 ± 0.044	0.763 ± 0.056	0.754 ± 0.042	0.731 ± 0.028	0.728 ± 0.018	0.695 ± 0.0085
1 µM, coculture fibroblast: H6019	0.7929 ± 0.0029	0.703 ± 0.018	0.67122 ± 0.00048	0.568 ± 0.0095	0.517 ± 0.014	0.484 ± 0.015	0.452 ± 0.016	0.443 ± 0.018	0.427 ± 0.019
1 µM, coculture fibroblast: H6076	0.857 ± 0.07	0.883 ± 0.069	0.824 ± 0.078	0.754 ± 0.1	0.661 ± 0.097	0.624 ± 0.09	0.597 ± 0.07	0.574 ± 0.071	0.571 ± 0.074
1 µM, coculture fibroblast: H6231	0.934 ± 0.0097	0.857 ± 0.013	0.74 ± 0.018	0.655 ± 0.0033	0.559 ± 0.014	0.516 ± 0.018	0.462 ± 0.026	0.427 ± 0.036	0.405 ± 0.043
1 µM, coculture fibroblast: HADF	0.892 ± 0.033	0.906 ± 0.11	0.855 ± 0.13	0.77 ± 0.15	0.693 ± 0.15	0.652 ± 0.13	0.611 ± 0.12	0.596 ± 0.12	0.56 ± 0.11
1 µM, coculture fibroblast: HCFa	0.8524 ± 0.0043	0.826 ± 0.039	0.771 ± 0.063	0.674 ± 0.089	0.594 ± 0.11	0.566 ± 0.13	0.532 ± 0.13	0.512 ± 0.14	0.477 ± 0.14
1 µM, coculture fibroblast: HCPF	0.957 ± 0.04	0.857 ± 0.045	0.812 ± 0.04	0.753 ± 0.02	0.677 ± 0.027	0.646 ± 0.019	0.629 ± 0.021	0.591 ± 0.012	0.581 ± 0.008
1 µM, coculture fibroblast: HHSteC	0.9147 ± 0.003	0.836 ± 0.048	0.778 ± 0.074	0.699 ± 0.082	0.636 ± 0.098	0.599 ± 0.11	0.574 ± 0.12	0.553 ± 0.12	0.527 ± 0.11
1 µM, coculture fibroblast: HMF	0.938 ± 0.083	0.869 ± 0.061	0.805 ± 0.06	0.737 ± 0.085	0.643 ± 0.07	0.589 ± 0.079	0.549 ± 0.075	0.513 ± 0.074	0.502 ± 0.083
1 µM, coculture fibroblast: HPFa	0.946 ± 0.031	0.89 ± 0.048	0.801 ± 0.074	0.734 ± 0.086	0.673 ± 0.084	0.637 ± 0.074	0.588 ± 0.082	0.563 ± 0.07	0.534 ± 0.071
1 µM, coculture fibroblast: HUF	0.906 ± 0.0091	0.799 ± 0.0087	0.7905 ± 0.0061	0.6767 ± 0.0019	0.6115 ± 0.0031	0.573 ± 0.0072	0.536 ± 0.013	0.532 ± 0.021	0.528 ± 0.025
1 µM, coculture fibroblast: Hs27A	0.952 ± 0.033	0.92 ± 0.062	0.85 ± 0.067	0.79 ± 0.047	0.736 ± 0.0052	0.7182 ± 0.0042	0.68312 ± 0.00057	0.6755 ± 0.0061	0.6342 ± 0.003
1 µM, coculture fibroblast: Hs343T	0.934 ± 0.013	0.796 ± 0.019	0.754 ± 0.0088	0.7025 ± 0.0041	0.605 ± 0.017	0.5622 ± 0.0037	0.5275 ± 0.0045	0.5023 ± 0.0041	0.506 ± 0.015
1 µM, coculture fibroblast: WS1	0.808 ± 0.026	0.702 ± 0.013	0.653 ± 0.011	0.529 ± 0.015	0.469 ± 0.036	0.444 ± 0.043	0.415 ± 0.045	0.413 ± 0.043	0.409 ± 0.043
